Assay results from patent publication US20150185222A1 (TORAY INDUSTRIES, published 2015).
Results are given in words; binding and its absence hold for the method and conditions named. Some entries that bind do so weakly or less than the wild type.

Columns and labels:
[1] = molecular target: dog CAPRIN-1 in dog breast cancer tissues (dog); test: immunohistochemical staining of frozen dog breast cancer tissue sections, 10 µg/ml antibody
[2] = molecular target: T1, polypeptide consisting of the amino acid sequence of SEQ ID NO: 66 (human); test: ELISA, polypeptide coupled to Immobilizer Amino plate, culture supernatant of #14, HRP anti-mouse IgG
T1 sequence (peptide): QQPQAASPSVPE

[3] = molecular target: T2, CAPRIN-1 in tumor tissues of transplanted mouse cancer cell lines (mouse) (UniProt Q60865); test: immunohistochemical staining of PFA-fixed frozen sections of mouse tumors, 10 µg/ml antibody
T2 sequence (looked up): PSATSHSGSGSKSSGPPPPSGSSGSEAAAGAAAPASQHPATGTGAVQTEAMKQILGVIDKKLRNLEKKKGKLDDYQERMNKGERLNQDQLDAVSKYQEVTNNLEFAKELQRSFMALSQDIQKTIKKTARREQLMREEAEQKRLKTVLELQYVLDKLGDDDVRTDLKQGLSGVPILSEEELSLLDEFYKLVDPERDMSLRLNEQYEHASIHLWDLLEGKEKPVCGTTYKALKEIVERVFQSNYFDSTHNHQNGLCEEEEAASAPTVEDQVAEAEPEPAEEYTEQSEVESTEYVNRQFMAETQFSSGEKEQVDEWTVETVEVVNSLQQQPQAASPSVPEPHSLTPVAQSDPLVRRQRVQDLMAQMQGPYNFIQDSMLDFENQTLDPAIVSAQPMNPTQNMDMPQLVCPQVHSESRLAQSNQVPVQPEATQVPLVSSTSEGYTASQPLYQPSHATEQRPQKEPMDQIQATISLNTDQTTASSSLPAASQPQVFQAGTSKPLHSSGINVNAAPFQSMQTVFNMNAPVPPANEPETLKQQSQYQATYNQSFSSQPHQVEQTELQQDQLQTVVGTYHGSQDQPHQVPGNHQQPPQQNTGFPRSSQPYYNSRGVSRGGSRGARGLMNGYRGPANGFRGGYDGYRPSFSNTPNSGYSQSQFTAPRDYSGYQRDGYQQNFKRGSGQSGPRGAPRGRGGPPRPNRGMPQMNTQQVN

Measured: binding

B1: mouse anti-human CAPRIN-1 monoclonal antibody #14 (antibody, V domains shown)
VH: GGGLVQPGGSMRLSCVASGFTFSNSWFNWVRQSPEKGLEWVAEIRLTSDNYAIYYAESVKGRFTISRDDSKSSVYLQMNNLRAEDTGIYYCTRPETARATFAYWGQGTTVTVSS
VL: DVLMTQTPLSLPVSLGDQASISCRSSQSIVHSNGNTYLEWYLQKPGQSPKVLIYKVFNRFSGVPDRFSGSGSGTDFTLKISRVEAEDLGVYYCFQGSHVPRTFGGGTKLNQTG
binds: all assays above
